Measured values reported in PubChem BioAssay (Tox21).
Where “and” joins values, the source holds several entries; their conditions need not be identical. Equal entries are not always repeated. These results got no clear call from the source, so the numbers are uncertain. Unless noted, calls follow the shape of the dose curve; as a rule, active = well fitted curve in the direction sought with a large enough effect in the repeat runs; inconclusive = weak or mixed curves; inactive = no such curve, though single readings can be large; an effect the other way counts as inactive or inconclusive.

The chains behind the UniProt entries cited, without tags or fusion partners.
UniProt P34981, whole entry: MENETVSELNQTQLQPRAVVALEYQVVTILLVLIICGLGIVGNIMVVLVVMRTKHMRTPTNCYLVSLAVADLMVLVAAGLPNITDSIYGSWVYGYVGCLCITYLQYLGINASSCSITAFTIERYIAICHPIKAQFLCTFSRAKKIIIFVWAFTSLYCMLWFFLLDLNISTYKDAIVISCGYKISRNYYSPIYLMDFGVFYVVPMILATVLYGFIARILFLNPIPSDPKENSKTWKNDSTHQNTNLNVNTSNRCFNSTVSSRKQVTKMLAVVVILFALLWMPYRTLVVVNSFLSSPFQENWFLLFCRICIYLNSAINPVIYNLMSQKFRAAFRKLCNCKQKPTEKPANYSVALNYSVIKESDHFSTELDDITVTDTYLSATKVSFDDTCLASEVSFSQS
UniProt P11712, whole entry: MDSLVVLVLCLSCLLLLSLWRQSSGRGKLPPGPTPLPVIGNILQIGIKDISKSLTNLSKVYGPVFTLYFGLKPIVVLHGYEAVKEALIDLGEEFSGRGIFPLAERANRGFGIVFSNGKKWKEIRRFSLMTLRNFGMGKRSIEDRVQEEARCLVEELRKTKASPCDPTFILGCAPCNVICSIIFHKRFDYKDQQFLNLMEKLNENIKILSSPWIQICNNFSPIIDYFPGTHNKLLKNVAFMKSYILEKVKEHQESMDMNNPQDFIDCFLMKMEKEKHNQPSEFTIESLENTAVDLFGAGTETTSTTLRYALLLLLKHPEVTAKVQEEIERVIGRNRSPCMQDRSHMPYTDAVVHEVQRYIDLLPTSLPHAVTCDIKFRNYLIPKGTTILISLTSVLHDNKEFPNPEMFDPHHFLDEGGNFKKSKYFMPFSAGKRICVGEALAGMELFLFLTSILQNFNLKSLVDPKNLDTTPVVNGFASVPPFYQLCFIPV
UniProt P08684, whole entry: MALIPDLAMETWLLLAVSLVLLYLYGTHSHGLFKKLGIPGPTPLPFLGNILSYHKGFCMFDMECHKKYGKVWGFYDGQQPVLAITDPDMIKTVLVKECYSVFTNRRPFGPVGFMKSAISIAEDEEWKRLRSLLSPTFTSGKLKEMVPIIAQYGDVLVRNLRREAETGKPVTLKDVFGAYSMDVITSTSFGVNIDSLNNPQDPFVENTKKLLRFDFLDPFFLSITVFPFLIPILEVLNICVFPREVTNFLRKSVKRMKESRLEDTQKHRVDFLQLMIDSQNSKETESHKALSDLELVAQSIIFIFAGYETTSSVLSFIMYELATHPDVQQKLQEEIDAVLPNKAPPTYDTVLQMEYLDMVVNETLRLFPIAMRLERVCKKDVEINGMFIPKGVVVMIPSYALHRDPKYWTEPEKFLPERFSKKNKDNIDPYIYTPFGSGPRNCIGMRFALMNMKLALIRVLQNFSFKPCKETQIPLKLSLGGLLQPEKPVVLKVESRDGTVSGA
UniProt P06401, whole entry: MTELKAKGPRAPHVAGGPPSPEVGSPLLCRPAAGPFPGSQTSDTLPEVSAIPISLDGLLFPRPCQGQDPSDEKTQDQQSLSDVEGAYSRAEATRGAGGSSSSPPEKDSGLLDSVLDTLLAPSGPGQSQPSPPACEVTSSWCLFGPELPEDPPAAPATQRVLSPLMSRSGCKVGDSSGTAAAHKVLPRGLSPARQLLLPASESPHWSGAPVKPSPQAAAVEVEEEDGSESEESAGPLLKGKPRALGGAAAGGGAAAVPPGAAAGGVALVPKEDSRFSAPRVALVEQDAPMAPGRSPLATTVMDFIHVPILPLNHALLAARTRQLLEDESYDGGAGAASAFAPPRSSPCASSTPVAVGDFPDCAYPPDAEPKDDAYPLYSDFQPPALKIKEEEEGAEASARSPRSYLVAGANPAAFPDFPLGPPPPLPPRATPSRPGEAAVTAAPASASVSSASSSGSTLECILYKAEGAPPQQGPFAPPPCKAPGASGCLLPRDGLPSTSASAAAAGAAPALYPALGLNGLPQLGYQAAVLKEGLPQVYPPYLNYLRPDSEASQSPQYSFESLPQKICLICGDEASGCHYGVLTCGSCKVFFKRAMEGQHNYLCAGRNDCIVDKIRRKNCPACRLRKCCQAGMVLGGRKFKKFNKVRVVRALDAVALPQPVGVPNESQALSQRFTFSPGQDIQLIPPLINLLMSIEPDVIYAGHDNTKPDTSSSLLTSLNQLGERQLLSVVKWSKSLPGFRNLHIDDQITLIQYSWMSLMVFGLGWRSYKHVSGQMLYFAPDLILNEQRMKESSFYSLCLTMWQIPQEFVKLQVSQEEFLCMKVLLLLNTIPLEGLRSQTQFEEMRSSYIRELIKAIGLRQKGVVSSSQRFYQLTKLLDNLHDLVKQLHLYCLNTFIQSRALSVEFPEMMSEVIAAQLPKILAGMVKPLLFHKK

Experiments:
[1] = qHTS assay for small molecule agonists of the antioxidant response element (ARE) signaling pathway (AID 743202; active = well fitted activation curve with a large enough effect in the signal ratio in the repeat runs, not every such curve was filed as active; inconclusive = weak or mixed curves, or effect the other way; inactive = no such curve, though single readings can be large or run the other way; the % refers to the signal ratio; also: potency is read from the fitted curve at half-maximal effect); conditions: HepG2 ARE-bla reporter, beta-lactamase FRET, 16 h; activation: at 73.3 µM (top of the series)
Summary of the method: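 Quantitative high-throughput format in HepG2 cells bearing an integrated ARE-beta-lactamase reporter. Compound exposure lasted 16 h at 37 C, and fluorescence was read 2 h after adding LiveBLAzer B/G substrate at room temperature.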

[2] = qHTS assay to identify small molecule antagonists of the retinoid-related orphan receptor gamma (ROR-gamma) signaling pathway - cell viability counter screen (AID 1159520); conditions: Tet-on RORgamma CHO cells viability, ATP luminescence, 16 h; also: potency is read from the fitted curve at half-maximal effect; nearly all actives have a fitted effect of over 50% in size
Summary of the method: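 Cytotoxicity was read from cellular ATP (CellTiter-Glo luminescence) after 16 hr at 37 C with 1 uM doxycycline induction. The inducer was added 2 hr after compound transfer to Tet-on ROR gamma CHO cells.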

[3] = qHTS assay to identify small molecule agonists of H2AX (AID 1224845; active = well fitted activation curve with a large enough effect in the signal ratio in the repeat runs, not every such curve was filed as active; inconclusive = weak or mixed curves; the % refers to the signal ratio; also: potency is read from the fitted curve at half-maximal effect); conditions: CHO-K1 phospho-H2AX Ser139 HTRF, 3 h; activation (H2AX phosphorylation): at 154 µM (top of the series)
Summary of the method: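 Phospho-H2AX Ser139 measured by HTRF (ex 320 nm; em 665 and 620 nm) after 24 hr antibody incubation. Compounds, 15 concentrations, 0.76% DMSO, were applied to CHO-K1 cells for 3hr at 37C before lysis.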

[4] = qHTS assay to identify small molecule HDAC inhibitors (AID 1259364); conditions: HCT-116 HDAC-Glo I/II luminescence, 2 h;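 also: wild-type HCT-116 cells with endogenous class I/II HDAC activity; potency is read from the fitted curve at half-maximal effect; nearly all actives have a fitted effect of over 45% in size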
Summary of the method: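 Read-out: luminescence of HDAC-Glo I/II reagent, 30 min RT, reflecting class I/II deacetylase activity in whole HCT-116 cells pre-exposed 2 h to DMSO-dissolved compounds.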

[5] = qHTS assay to identify small molecule agonists of the estrogen receptor beta (ER-beta) signaling pathway - cell viability counter screen (AID 1259380); conditions: ER-beta-bla HEK293T viability, CellTiter-Glo luminescence, 16 h; also: potency is read from the fitted curve at half-maximal effect; nearly all actives have a fitted effect of over 30% in size
Summary of the method: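 CellTiter-Glo read, 30 min RT, same wells as bla assay; cells ER-beta-UAS-bla HEK293T; 16 hr compound, 37C; medium 2% charcoal-stripped FBS.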

[6] = qHTS assay to identify small molecule agonists or antagonists of the thyroid stimulating hormone receptor (TSHR) signaling pathway - wild type cell line counter screen (AID 1259384; calls by dose curve; also: potency is read from the fitted curve at half-maximal effect); conditions: HEK293 wild type, cAMP HTRF counter-screen
Summary of the method: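 Counter screen in untransfected Hek293: compounds (15-point titration, triplicate) plus phosphodiesterase inhibitor Ro20-1724 added after 18 h plating; 30 min RT. Intracellular cAMP via competitive d2/cryptate immunoassay, 1 h incubation.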

[7] = qHTS assay to identify small molecule antagonists of the progesterone receptor (PR) signaling pathway - cell viability counter screen (AID 1346798); conditions: PR-UAS-bla HEK293T viability, CellTiter-Glo luminescence, 16 h; also: potency is read from the fitted curve at half-maximal effect; nearly all actives have a fitted effect of over 50% in size
Summary of the method: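 CellTiter-Glo luminescence; PR-UAS-bla HEK293T, 3,000 cells/well; compound + R5020, 16 hr, 37C/5% CO2; 30 min RT before read.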

[8] = molecular target: Thyrotropin-releasing hormone receptor (Homo sapiens) (UniProt P34981); experiment: qHTS assay to identify small molecule antagonists of the thyrotropin-releasing hormone receptor (TRHR) signaling pathway (AID 1346877; active = well fitted inhibition curve with a large enough effect in the repeat runs, not every such curve was filed as active; inconclusive = weak or mixed curves; also: potency is read from the fitted curve at half-maximal effect); conditions: TRHR-HEK293, TRH-induced calcium fluorescence, antagonist mode
[9] = molecular target: Cytochrome P450 2C9 (Homo sapiens) (UniProt P11712); experiment: Cytochrome P450 Family 2 Subfamily C Member 9 (CYP2C9) small molecule antagonists: luciferase reporter qHTS assay (AID 1671198); conditions: P450-Glo CYP2C9 enzyme assay, luciferin luminescence; also: potency is read from the fitted curve at half-maximal effect; nearly all actives have a fitted effect of over 50% in size
Summary of the method: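 Enzyme-substrate mix preincubated with compound 10 min at room temperature; reaction started with NADPH regeneration solution, 1 h 37C. Luminescent luciferin product read after 20 min detection reagent.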

[10] = molecular target: Cytochrome P450 3A4 (Homo sapiens) (UniProt P08684); experiment: Cytochrome P450 Family 3 Subfamily A Member 4 (CYP3A4) small molecule antagonists: luciferase reporter qHTS assay (AID 1671201); conditions: P450-Glo CYP3A4 enzyme, luciferin luminescence, 1 h; also: potency is read from the fitted curve at half-maximal effect; nearly all actives have a fitted effect of over 50% in size
Summary of the method: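 Relative luminescence units after 20 min with luciferin detection reagent served as read-out. Beforehand, CYP3A4 turned over a proluciferin substrate for 1 h at room temperature with NADPH regeneration, following 10 min compound preincubation.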

[11] = qHTS assay for small molecule disruptors of the mitochondrial membrane potential (AID 720635); conditions: HepG2 mitochondrial membrane potential, Mito-MPS dye ratio; ratio activity, negative = MMP loss: at 83.2 µM (top of the series) unless noted; also: potency is read from the fitted curve at half-maximal effect
Summary of the method: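 Mitochondrial membrane potential tracked with Mito-MPS dye, red aggregates (ex 540/em 590 nm) against green monomers (ex 490/em 535 nm). Compound treatment 1 hr at 37C, dye 30 min in HepG2.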

[12] = qHTS assay to identify small molecule agonists of the vitamin D receptor (VDR) signaling pathway - cell viability counter screen (AID 743224); conditions: VDR-bla HEK293T viability, CellTiter-Glo luminescence, 16 h
Summary of the method: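 Plated VDR-bla cells (4 h, 37C) received compound, incubated 16 h, then LiveBLAzer substrate 2 h RT; CellTiter-Glo added afterwards, luminescence read at 30 min.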

[13] = qHTS assay to identify small molecule antagonists of the vitamin D receptor (VDR) signaling pathway - cell viability counter screen (AID 743225); conditions: VDR-bla HEK293T viability, CellTiter-Glo luminescence, 16 h
Summary of the method: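 Same-well multiplex: following 16 h treatment of HEK 293T cells carrying a UAS-driven beta-lactamase reporter with compound and agonist (3 nM final), and a 2 h FRET substrate step, CellTiter-Glo was added and luminescence read after 30 min.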

[14] = qHTS assay to identify small molecule antagonists of the retinoic acid receptor (RAR) signaling pathway (AID 1159552); conditions: C3RL4 RARE luciferase reporter, retinol-stimulated, 6 h
Summary of the method: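 Antagonism of retinol-induced RARE reporter activity was measured in C3RL4 cells. Exposure to compounds and 1 uM final retinol lasted 6 hr at 37 C, with luminescence as endpoint.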

[15] = qHTS assay to identify small molecule antagonists of the sonic hedgehog signaling (Shh) pathway (AID 1259369; calls by dose curve; also: potency is read from the fitted curve at half-maximal effect; nearly all actives have a fitted effect of over 45% in size); conditions: NIH/3T3 Gli1-Luc reporter, Shh antagonist, luminescence 24 h
Summary of the method: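 For antagonist detection, the reporter line received test compounds together with conditioned medium, incubated 24hr at 37 C, 5% CO2, then luminescence was recorded following 30min room-temperature luciferase reagent incubation.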

[16] = molecular target: Progesterone receptor (Homo sapiens) (UniProt P06401); experiment: qHTS assay to identify small molecule agonists of the progesterone receptor (PR) signaling pathway (AID 1346784; calls by dose curve; also: % is scaled to controls: 0 for no effect and ±100 for the full control effect; nearly all actives have a fitted effect of over 30% in size); conditions: PR-UAS-bla HEK293T, beta-lactamase FRET ratio, 16 h; activation: at 92.4 µM (top of the series)
Summary of the method: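 Fluorescence from LiveBLAzer B/G FRET substrate cleavage (2 hr, RT) reported PR activation in PR-UAS-bla HEK 293T cells treated 16 hr at 37C/5% CO2 with compounds; medium contained 2% charcoal-stripped FBS.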

Cc1ccc([N+](=O)[O-])cc1[N+](=O)[O-]
inconclusive: Potency [1] 13.5 µM | Potency [2] 27.3 µM | Potency [3] 49.8 µM | Potency [4] 24 µM | Potency [5] 34.4 µM | Potency [6] 47.9 µM | Potency [7] 68.6 µM | Potency [8] 16.7 µM | Potency [9] 70 µM and 79.6 µM | Potency [10] 55.6 µM

CC(C)N(CCO)C(C)C
inconclusive: Potency [11] 9.7 nM | Potency [12] 38.9 µM | Potency [13] 5.49 µM | Potency [14] 5.45 µM | Potency [15] 27.3 µM | activation [16] -1.61%
